Measured values as given in PubChem BioAssay AID493014 (National Center for Advancing Translational Sciences (NCATS), 2011).
Some of the results follow. Shown are side measurements of this screen, not its main read-out; they come without a call. The list favours compounds with an active or inconclusive main result. The note in brackets gives the kind of curve behind each potency; many fits are weak.

Test: qHTS Assay to Find Inhibitors of Chronic Active B-Cell Receptor Signaling
Details: ABC-DLBCL IkBa-CBG/CBR reporter, luminescence ratio (green luciferase fused to IkBa over red control in TMD8 lymphoma cells), 4 h
In short: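 Compounds up to 46 uM were incubated four hours with TMD8 cells whose green CBG68 luciferase is fused to IkappaBalpha; red CBR luminescence normalised the signal, and concentration-effect curves were fitted to fusion, red and ratio data.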

[1] = measured here: CBR red luminescence, cell number
[2] = measured here: IkBa-CBG green luminescence

| Compound | AC50 [1] | AC50 [2] |
| --- | --- | --- |
| COc1ccc(/C=N/NC(=O)c2ccc3nc[nH]c3c2)cc1 | 3.98 µM [falling, partial curve, poor fit] | – |
| CC1C(=O)NN=C1C(=O)N/N=C\c1ccc(O)cc1O (centres undefined) | 2.06 µM [falling, full curve] | – |
| Cc1c(CCC(=O)N2CCC(C(=O)O)CC2)c(=O)oc2cc3oc4c(c3cc12)CCCC4 | 6.31 µM [rising, full curve] | 8.91 µM [falling, partial curve] |
| COc1ccc(CNC(=O)CCCc2cn(C)c3ccccc23)c(OC)c1 | 35.5 µM [falling, single point] | – |
| O=C(O)CCc1ccc(-c2cccs2)n1NC(=O)c1ccc(O)cc1 | 18.4 µM [falling, partial curve, poor fit] | – |
| Cc1cc(=O)[nH]c(N/N=C/c2cn(CCC#N)nc2-c2ccccc2)n1 | 1.78 µM [falling, full curve, poor fit] | – |
| O=C(Nc1cccc(C(F)(F)F)c1)c1cc(Br)cc2c1OCC2 | 10 µM [rising, partial curve] | – |
| COc1ccc(CC2(CO)CCN(Cc3cccc4nccnc34)CC2)cc1 | 22.4 µM [falling, partial curve, poor fit] | 14.1 µM [falling, partial curve, poor fit] |
| COc1cccc(NC(=O)c2ccc(S(=O)(=O)N3CCCCC3)cc2)c1 | 7.31 µM [falling, partial curve] | – |
| COc1ccc2cc(C(=O)Nc3ccccc3)sc(=O)c2c1OC | 1.03 µM [rising, full curve] | – |
| CCOC(=O)C1=C(N)OC2=C(C(=O)CC(C)(C)C2)C1c1ccccc1OCC#N (centres undefined) | 6.51 µM [falling, single point] | – |
| COc1ccc(NC(=O)CSc2nncc3ccccc23)cc1 | 11.2 µM [falling, partial curve] | – |
| Cn1nnnc1N=N/C(=N/Nc1ccccc1)c1ccccc1 | 2.82 µM [rising, partial curve] | 5.62 µM [falling, partial curve] |
| CC1(c2ccc3c(c2)OCCO3)NC(=O)N(CC(=O)Nc2ccccc2F)C1=O (centres undefined) | 0.103 µM [rising, full curve, poor fit] | – |
| COc1ccc(OC(=O)COc2cc(C)ccc2C)cc1 | 10 µM [rising, partial curve] | – |
| COc1ccc(CC(=O)Nc2nc(-c3ccccc3)c(C(C)=O)s2)cc1OC | 3.98 µM [falling, partial curve, poor fit] | – |
| S=C(NCCc1ccccc1)N/N=C/C1CCCCC1 | 17.8 µM [rising, single point] | – |
| COCc1nc2c([nH]1)c(=O)n(C)c(=O)n2CC(C)C | 0.411 µM [falling, full curve] | – |
| O=C(c1cccs1)n1nc(-c2cccnc2)nc1NCc1ccco1 | 35.5 µM [falling, single point] | – |
| CCCC[n+]1ccn(-c2nc3ccccc3nc2[N-]S(=O)(=O)c2ccc(Br)cc2)c1 | 35.5 µM [rising, single point] | – |
| O=S(=O)(Nc1cccc(-c2nnco2)c1)c1ccc(F)cc1F | 35.5 µM [falling, single point] | – |
| CCOC(=O)c1sc(NC(=O)CSc2ncccn2)nc1C | 1.26 µM [falling, full curve] | – |

| Compound | AC50 [1] | AC50 [2] |
| --- | --- | --- |
| O=C(Nc1cccc(F)c1)N1CCN(C(=O)c2ccco2)CC1 | 8.91 µM [rising, single point] | – |
| CCOc1ccc(CCNc2nc3c(c(=O)n(C)c(=O)n3C)n2CC)cc1OCC | 29.1 µM [falling, single point] | – |
| Oc1ccc(/C=N/Nc2nccnc2Cl)c(O)c1 | 3.66 µM [falling, full curve] | – |
| COC(=O)c1cc(C(=O)OC)cc(N2C(=O)CC(NNC(=O)c3ccccc3Br)C2=O)c1 (centres undefined) | 8.91 µM [falling, partial curve] | – |
| COc1ccc(NCc2cc3ccccc3[nH]c2=O)cc1 | 35.5 µM [falling, single point] | – |
| CCCN(Cc1nnc(-c2ccccc2Cl)o1)C(=O)c1oc2ccccc2c1C | 29.1 µM [falling, single point] | – |
| Cc1csc(NC(=O)Cc2coc3cc(C)c(C(C)C)cc23)n1 | 29.1 µM [falling, single point] | – |
| Cc1cc(O)cc2c1C(=O)/C(=C/c1ccco1)O2 | 35.5 µM [falling, single point] | – |
| CC(C)N(Cc1cc2ccccc2[nH]c1=O)C(=O)c1ccco1 | 12.6 µM [falling, partial curve] | – |
| CCCOC(=O)c1ccc(NC(=O)C2CCCO2)cc1 (centres undefined) | 1.64 µM [rising, partial curve] | – |
| CCOC(=O)c1ccccc1N1C(=O)CSC1=S | – | 29.1 µM [falling, single point] |
| Cn1c(=O)c2c(ncn2Cc2cccc(Cl)c2)n(C)c1=O | 2.51 µM [falling, partial curve, poor fit] | – |
| O=C(Nc1ccc(N2CCOCC2)c(C(=O)O)c1)c1ccco1 | 29.1 µM [falling, partial curve, poor fit] | – |
| Cc1ccc2c(CSc3nncs3)cc(=O)oc2c1 | 35.5 µM [rising, single point] | – |
| CCCn1c(SCC(=O)Nc2c(C)cccc2CC)nnc1C(C)C | 7.31 µM [falling, single point] | – |
| CC(=O)n1cc([C@H]2C=C(C(=O)Nc3ccccc3)O[C@@H](OCc3ccc(CO)cc3)C2)c2ccccc21 | 11.2 µM [falling, single point] | – |
| O=C1NCC(O)=C1C=NC12CC3CC(CC(C3)C1)C2 | 3.66 µM [rising, partial curve, poor fit] | – |
| Cc1nc(N2CCOCC2)c(C#N)c2c1COC(C)(C)C2 | 2.06 µM [rising, partial curve, poor fit] | – |
| Cc1cc(C)c(C#N)c(N2CCN(c3ccc(F)cc3)CC2)n1 | 0.891 µM [rising, full curve, poor fit] | – |
| Cc1ccc2nc(-c3cccnc3)oc2c1 | 6.31 µM [rising, single point] | – |
| COc1ccc(C[C@H](N)C(=O)N[C@H]2[C@@H](O)[C@H](n3cnc4c(N(C)C)ncnc43)O[C@@H]2CO)cc1 | 25.9 µM [falling, single point] | – |
| O=C(NC(=S)Nc1ccccc1N1CCCC1)c1cccc(F)c1 | 20 µM [falling, single point] | – |

| Compound | AC50 [1] | AC50 [2] |
| --- | --- | --- |
| O=C(c1ncn[nH]1)N1CCN(c2nc(-c3ccccc3)cs2)CC1 | 0.501 µM [rising, full curve, poor fit] | – |
| O=C(O)COc1ccc(/C=C/C(=O)c2ccc3ccccc3c2)cc1 | 20 µM [falling, single point] | – |
| COC(=O)c1sccc1NC(=O)CSc1ccccc1NS(=O)(=O)c1cc(Cl)ccc1Cl | 23.1 µM [falling, partial curve] | – |
| Cc1c(N=Cc2nc3ccccc3n2C)c(=O)n(-c2ccccc2)n1C | 0.501 µM [rising, full curve] | – |
| CCOc1ccccc1C(=O)Nc1ccc2nc3n(c(=O)c2c1)CCCCC3 | 2.24 µM [falling, full curve, poor fit] | – |
| O=C(NCc1ccco1)c1cc(-c2ccccc2)nn1CC1CC(c2cccc([N+](=O)[O-])c2)=NO1 (centres undefined) | 9.2 µM [rising, partial curve] | – |
| Cc1sc(NC(=O)Cn2cnnn2)nc1-c1ccc(Cl)cc1 | 22.4 µM [falling, single point] | – |
| COc1ccccc1-c1c(C)nn2c(C)cc(C)nc12 | 8.2 µM [rising, partial curve] | – |
| CC(C)OC(=O)c1cccc(C(=O)OCc2ccco2)n1 | 10 µM [falling, partial curve, poor fit] | – |
| O=C(NCc1ccncc1)C1CCCCC1 | 6.51 µM [falling, single point] | – |
| CN(C)CCNC(=O)C(c1ccccc1)c1ccccc1 | 35.5 µM [rising, single point] | – |
| CCCn1c2ccccc2c2cc(C(=O)O)ccc21 | 10 µM [falling, partial curve] | 5.62 µM [rising, partial curve] |
| Cc1ccccc1NC(=O)CC(C)S(=O)(=O)c1ccc2c(c1)NC(=O)CO2 (centres undefined) | 15.8 µM [falling, partial curve, poor fit] | – |
| COc1ccc(Cc2nnc(N/N=C/c3ccc(O)cc3O)[nH]c2=O)cc1OC | 29.1 µM [falling, single point] | – |
| O=C(CC1(O)C(=O)Nc2ccccc21)c1cccnc1 (centres undefined) | 0.116 µM [falling, full curve, poor fit] | – |
| O=C(/C=C/c1ccc(OC(F)F)cc1)Nc1cccc(S(=O)(=O)NC2=NCCCCC2)c1 | 7.94 µM [falling, partial curve, poor fit] | – |
| NC(=NC(=O)c1cccc(C(F)(F)F)c1)c1ccc(C(F)(F)F)cn1 | 10 µM [rising, partial curve] | – |
| COc1ccc(SCCN2CC[C@@H](C(C)(C)C)CCC2=O)cc1 | 32.6 µM [falling, single point] | – |
| CCCCN1CC(O)=C(c2nc(-c3ccc(Br)cc3)cs2)C1=N | 1.41 µM [rising, full curve] | – |
| Cc1cc2[nH]ncc2cc1NC(N)=S | 11.2 µM [falling, partial curve, poor fit] | – |
| Cc1nn(Cc2ccc(F)cc2)c(C)c1NC(=O)c1cnn2c1NC(c1cccs1)CC2C(F)(F)F (centres undefined) | 14.6 µM [falling, single point] | – |

Record cards (already shown). Values in the order: AC50 [1]	AC50 [2]
`O=C(/C=C/c1ccc(OC(F)F)cc1)Nc1cccc(S(=O)(=O)NC2=NCCCCC2)c1` is listed as 7.94 µM [falling, partial curve, poor fit]	–
`CN(C)CCNC(=O)C(c1ccccc1)c1ccccc1` is listed as 35.5 µM [rising, single point]	–
`O=C(NCc1ccncc1)C1CCCCC1` is listed as 6.51 µM [falling, single point]	–
